{"sequences": {"note": "The chains behind the UniProt entries cited, without tags or fusion partners. Where a name states a change or a piece, a line headed by the entry shows the natural chain unless it says otherwise.", "UniProt Q92633": "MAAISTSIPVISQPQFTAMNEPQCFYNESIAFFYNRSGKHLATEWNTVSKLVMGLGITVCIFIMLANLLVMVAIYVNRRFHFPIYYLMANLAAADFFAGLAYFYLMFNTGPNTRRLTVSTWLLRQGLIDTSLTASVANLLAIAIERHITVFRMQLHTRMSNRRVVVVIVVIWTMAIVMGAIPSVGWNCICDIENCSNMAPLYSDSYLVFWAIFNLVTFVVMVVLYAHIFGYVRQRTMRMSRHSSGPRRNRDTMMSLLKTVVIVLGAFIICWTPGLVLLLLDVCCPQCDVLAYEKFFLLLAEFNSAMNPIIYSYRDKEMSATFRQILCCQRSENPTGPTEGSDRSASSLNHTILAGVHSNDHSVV"}, "source": "patent US6964975B2", "about": "“Isoxazole and thiazole compounds and use thereof as medicine” (Kirin Beer Kabushiki Kaisha, priority 2000, dated 2005)", "target": "T1, human EDG-2 (Homo sapiens, UniProt Q92633)", "T1 construct": "cDNA of the cloned human EDG-2 was introduced into pEFneo, which is an animal expression vector; expressed in transfected cells; host or cells: HepG2", "test": "Inhibitory activity on LPA-induced elevation of intracellular Ca2+ level", "format": "cell-based", "source_text": "The human EDG-2 expression plasmid was introduced into HepG2 cells by electroporation. After the introduction, culturing was continued while exchanging selective media every 3 to 4 days, thereby obtaining an expressed colony. Regarding these cells, Ca-influx and cell-proliferation by LPA, level of [^3H] LPA binding and the like were inspected to select a cell line which highly expresses human EDG-2 (human EDG-2/HepG2).\nHuman EDG-2/HepG2 cells were washed and then suspended in 0.1% BSA (bovine serum albumin)-containing HEPES buffer. A fluorescent indicator, fura-2/AM (Wako Pure Chemical Industries, Ltd.), was added, and the mixture was shaken at room temperature for 45 minutes so that the indicator is included in the cell. Cells were washed again and then suspended in 0.1% BSA-containing HEPES buffer, and intracellular Ca^2+ level was assayed using FDSS2000 (Hamamatsu Photonics). […] Each test compound was added to the cell suspension followed by the addition of LPA, thereby examining the inhibitory activity of the test compound on the function of LPA for elevating the intracellular Ca level. […] The lower the IC50 value, the higher the antagonistic activity on the LPA receptor.", "note": "Some entries share one result that the patent states for a list of compounds.", "data": [{"substance": "N-[2-({4-[4-({[1-(2-Chlorophenyl)ethoxy]carbonyl}amino)-3-methyl-5-isoxazolyl]benzyl}-sulfanyl)propanoyl]carbamic acid [Compound 127]", "values": [{"measurement": "IC50", "result": "≤ 10", "unit": "µM"}]}]}
